Data as given in PMC12538886.
These are yes or no findings as the source states them, for the method shown. Binding seen in cells or lysates may run through a third protein. Sequences can lack the tags named with a protein.

The chains behind the UniProt entries cited, without tags or fusion partners.
UniProt O60934: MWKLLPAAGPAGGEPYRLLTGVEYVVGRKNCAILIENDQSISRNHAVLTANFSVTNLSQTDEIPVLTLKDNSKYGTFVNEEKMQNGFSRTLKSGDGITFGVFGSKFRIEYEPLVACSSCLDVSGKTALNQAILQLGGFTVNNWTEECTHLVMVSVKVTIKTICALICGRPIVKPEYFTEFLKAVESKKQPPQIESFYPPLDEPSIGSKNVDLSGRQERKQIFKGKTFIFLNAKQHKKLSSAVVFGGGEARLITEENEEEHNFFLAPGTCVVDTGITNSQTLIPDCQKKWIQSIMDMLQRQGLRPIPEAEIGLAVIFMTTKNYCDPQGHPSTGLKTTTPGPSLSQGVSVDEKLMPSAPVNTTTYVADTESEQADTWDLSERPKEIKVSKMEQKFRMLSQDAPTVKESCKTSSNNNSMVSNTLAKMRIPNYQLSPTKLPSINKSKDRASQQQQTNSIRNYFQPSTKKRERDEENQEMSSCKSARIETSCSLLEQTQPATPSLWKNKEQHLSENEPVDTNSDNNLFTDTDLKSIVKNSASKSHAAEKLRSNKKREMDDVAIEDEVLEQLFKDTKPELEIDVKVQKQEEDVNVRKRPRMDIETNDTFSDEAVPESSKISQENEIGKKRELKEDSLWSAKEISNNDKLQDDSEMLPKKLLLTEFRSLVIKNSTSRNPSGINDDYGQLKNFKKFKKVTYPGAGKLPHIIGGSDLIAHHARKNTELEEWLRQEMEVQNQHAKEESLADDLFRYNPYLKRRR
UniProt Q92878: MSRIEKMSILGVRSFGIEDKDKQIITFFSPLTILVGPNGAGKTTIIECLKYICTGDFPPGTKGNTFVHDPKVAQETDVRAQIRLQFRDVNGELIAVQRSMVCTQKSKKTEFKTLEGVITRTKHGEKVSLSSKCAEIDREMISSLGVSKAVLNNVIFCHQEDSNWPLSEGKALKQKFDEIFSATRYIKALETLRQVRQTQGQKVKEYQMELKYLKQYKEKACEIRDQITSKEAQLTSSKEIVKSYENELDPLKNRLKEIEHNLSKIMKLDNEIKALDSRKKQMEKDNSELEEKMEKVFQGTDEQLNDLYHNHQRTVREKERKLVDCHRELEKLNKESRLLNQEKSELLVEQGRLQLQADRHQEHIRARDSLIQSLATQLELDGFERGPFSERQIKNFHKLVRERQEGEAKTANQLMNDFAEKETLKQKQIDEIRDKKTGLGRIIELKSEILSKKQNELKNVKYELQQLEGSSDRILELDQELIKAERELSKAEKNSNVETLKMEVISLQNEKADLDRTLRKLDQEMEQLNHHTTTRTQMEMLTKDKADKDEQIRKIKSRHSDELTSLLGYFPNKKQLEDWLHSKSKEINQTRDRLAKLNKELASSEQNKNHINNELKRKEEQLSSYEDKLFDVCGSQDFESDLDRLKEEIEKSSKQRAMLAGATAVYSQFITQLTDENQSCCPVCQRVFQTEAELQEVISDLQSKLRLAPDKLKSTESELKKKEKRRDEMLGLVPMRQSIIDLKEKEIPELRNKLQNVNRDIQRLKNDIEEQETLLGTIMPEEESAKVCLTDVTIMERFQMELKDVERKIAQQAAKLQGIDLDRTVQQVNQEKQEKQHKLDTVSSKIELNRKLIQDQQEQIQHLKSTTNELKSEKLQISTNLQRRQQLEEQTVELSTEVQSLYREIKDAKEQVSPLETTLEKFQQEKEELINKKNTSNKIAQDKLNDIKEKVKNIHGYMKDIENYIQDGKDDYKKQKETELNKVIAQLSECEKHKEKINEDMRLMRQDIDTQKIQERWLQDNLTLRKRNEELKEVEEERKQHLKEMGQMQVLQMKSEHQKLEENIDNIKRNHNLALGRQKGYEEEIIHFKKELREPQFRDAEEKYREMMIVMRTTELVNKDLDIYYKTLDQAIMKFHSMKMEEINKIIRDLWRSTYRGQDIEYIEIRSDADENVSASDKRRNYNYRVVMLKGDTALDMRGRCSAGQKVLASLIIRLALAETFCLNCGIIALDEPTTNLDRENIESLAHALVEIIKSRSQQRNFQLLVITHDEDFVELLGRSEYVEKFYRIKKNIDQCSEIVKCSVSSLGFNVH

Target: T1, Flag-ACOX2 (acyl-CoA oxidase 2) (UniProt Q99424)
T1 sequence: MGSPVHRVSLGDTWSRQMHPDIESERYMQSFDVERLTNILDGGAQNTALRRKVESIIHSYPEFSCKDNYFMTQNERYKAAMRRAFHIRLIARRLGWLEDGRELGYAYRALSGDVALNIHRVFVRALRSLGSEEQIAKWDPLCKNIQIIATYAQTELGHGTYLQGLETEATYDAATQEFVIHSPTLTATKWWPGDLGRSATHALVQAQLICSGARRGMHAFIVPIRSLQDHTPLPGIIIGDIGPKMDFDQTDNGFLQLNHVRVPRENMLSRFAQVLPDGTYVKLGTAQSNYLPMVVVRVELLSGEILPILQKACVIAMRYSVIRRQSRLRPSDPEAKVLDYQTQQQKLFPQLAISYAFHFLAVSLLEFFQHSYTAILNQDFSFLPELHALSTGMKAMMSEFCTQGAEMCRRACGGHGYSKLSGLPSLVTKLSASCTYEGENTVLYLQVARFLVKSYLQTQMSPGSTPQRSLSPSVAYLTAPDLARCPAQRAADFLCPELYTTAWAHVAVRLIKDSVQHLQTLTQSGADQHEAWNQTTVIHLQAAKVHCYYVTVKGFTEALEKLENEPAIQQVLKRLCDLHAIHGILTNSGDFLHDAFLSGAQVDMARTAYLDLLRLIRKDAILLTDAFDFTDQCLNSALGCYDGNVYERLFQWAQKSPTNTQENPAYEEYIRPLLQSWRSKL
Assay: co-IP; Flag-ACOX2 with MRE11, RAD50 or NBS1, with or without ACOX2 overexpression (Fig. S3A); cells not given

Substance	binding
NBS1 (from UniProt O60934 1-754)	no binding
RAD50 (from UniProt Q92878 1-1312)	no binding
